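293T-iDUX4 cells carrying a ZSCAN4-driven Gaussia luciferase and a tet-on Italica luciferase control; the gap between the two luminescence signals is read after 24 h.
The test concentration is not given here.
Percent difference between the Gaussia and Italica channels; more negative values mean more selective suppression of the DUX4 reporter, and higher values mean less activity.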

Values are in %.
How 0% and 100% were set is not given here.
Common to all entries: measured here: selective DUX4 reporter inhibition.
This is a side read-out of the assay, for part of the compounds, not drawn at random.

{"compound": "COc1ccc(S(=O)(=O)N(C)C[C@H]2OCc3ccccc3-c3c(n(C)c4ccccc34)C(=O)N([C@@H](C)CO)C[C@H]2C)cc1", "Gaussia minus Italica difference (%)": "-20.79"}
{"compound": "CCS(=O)(=O)N1CC2(CN(Cc3ccccc3F)[C@H](CO)c3c2c2ccc(OC)cc2n3C)C1", "Gaussia minus Italica difference (%)": "-4.684"}
{"compound": "C[C@H](CO)N1C[C@H](C)[C@H](CN(C)Cc2ccc(F)cc2)OCc2ccccc2-c2ccccc2C1=O", "Gaussia minus Italica difference (%)": "-12.29"}
{"compound": "CO[C@H]1CN(C)C(=O)c2ccc(NC(=O)c3cccc(Oc4ccccc4)c3)cc2OC[C@@H](C)NC[C@@H]1C", "Gaussia minus Italica difference (%)": "19.22"}
{"compound": "CCCNC(=O)N1CC2(C1)[C@H](c1ccccc1)[C@H](CO)N2C(=O)c1cccnc1", "Gaussia minus Italica difference (%)": "-5.401"}
{"compound": "O=C(C[C@H]1C[C@H]2c3cc(NS(=O)(=O)c4ccc(F)cc4)ccc3O[C@H]2[C@H](CO)O1)N1CCc2ccccc2C1", "Gaussia minus Italica difference (%)": "6.921"}
{"compound": "COc1ccc(-c2ccc([C@@H]3[C@H]4CN(C(=O)c5ccc(F)cc5)CCCCN4[C@H]3CO)cc2)cc1", "Gaussia minus Italica difference (%)": "3.529"}
{"compound": "C[C@@H]1CN([C@@H](C)CO)C(=O)c2c(c3ccccc3n2C)-c2ccccc2CO[C@@H]1CN(C)Cc1cccc(C(F)(F)F)c1", "Gaussia minus Italica difference (%)": "-16.93"}
{"compound": "O=C(C[C@@H]1CC[C@@H]2[C@H](COC[C@H](O)CN2S(=O)(=O)c2ccc(Oc3ccccc3)cc2)O1)Nc1ccccc1", "Gaussia minus Italica difference (%)": "-9.19"}
{"compound": "COc1cccc(S(=O)(=O)N2CCCCN3[C@H](CO)[C@H](c4ccc(-c5cccnc5)cc4)[C@@H]3C2)c1", "Gaussia minus Italica difference (%)": "-1.727"}
{"compound": "C[C@H]1CN([C@@H](C)CO)C(=O)c2c(c3ccccc3n2C)-c2ccccc2CO[C@H]1CN(C)Cc1ccc(C(F)(F)F)cc1", "Gaussia minus Italica difference (%)": "-0.9373"}
{"compound": "Cc1cccc(S(=O)(=O)N(C)C[C@H]2OCc3ccccc3-c3c(n(C)c4ccccc34)C(=O)N([C@@H](C)CO)C[C@H]2C)c1", "Gaussia minus Italica difference (%)": "-7.953"}
{"compound": "COc1ccccc1-c1ccc([C@@H]2[C@@H](CO)N3CCCCN(C(=O)c4cccnc4)C[C@H]23)cc1", "Gaussia minus Italica difference (%)": "-12.91"}
{"compound": "O=C(Nc1ccc(Cl)c(Cl)c1)N[C@@H]1CC[C@H](CCNC(=O)c2ccc(F)cc2)O[C@@H]1CO", "Gaussia minus Italica difference (%)": "0.2521"}
{"compound": "Cc1ccccc1S(=O)(=O)N1CCCCN2[C@H](CO)[C@H](c3ccc(-c4cccc(F)c4)cc3)[C@@H]2C1", "Gaussia minus Italica difference (%)": "-15.67"}
{"compound": "O=C(Nc1ccccc1)N1C[C@@H]2N[C@H](C1)C2c1ccc(-c2ccccc2F)cc1", "stereo": "stereo partly shown", "Gaussia minus Italica difference (%)": "8.084"}
{"compound": "O=C(C[C@H]1C[C@@H]2c3cc(NC(=O)c4ccc5c(c4)OCO5)ccc3O[C@@H]2[C@@H](CO)O1)NCCc1ccccc1", "Gaussia minus Italica difference (%)": "-3.645"}
{"compound": "COC(=O)[C@H]1[C@H](CO)[C@H]2Cn3c(ccc(C4=CCCCC4)c3=O)[C@H]2N1CC1CCCCC1", "Gaussia minus Italica difference (%)": "-11.8"}
{"compound": "CCCC#Cc1ccc([C@H]2[C@@H](CO)N3C(=O)CN(S(=O)(=O)c4ccccc4C)C[C@H]23)cc1", "Gaussia minus Italica difference (%)": "-6.683"}
{"compound": "COc1ccc2c3c(n(C)c2c1)[C@@H](CO)N(Cc1ccc2c(c1)OCO2)CC31CCN(C)CC1", "Gaussia minus Italica difference (%)": "-13.69"}
{"compound": "C[C@H]1CN([C@@H](C)CO)C(=O)CCCn2nncc2CO[C@H]1CN(C)Cc1ccc(Oc2ccccc2)cc1", "Gaussia minus Italica difference (%)": "-17.48"}
{"compound": "N#C[C@@H]1[C@H](c2ccccc2C2=CCCCC2)[C@H](CO)N1C(=O)c1cccc(F)c1", "Gaussia minus Italica difference (%)": "-16.79"}
{"compound": "COc1ccc(CN2C[C@@H](C)[C@@H](OC)CN(C)C(=O)c3cc(NC(=O)c4nc5ccccc5s4)ccc3OC[C@@H]2C)cc1", "Gaussia minus Italica difference (%)": "-10.21"}
{"compound": "COc1ccccc1S(=O)(=O)N1C[C@@H]2N[C@H](C1)C2c1ccc(-c2cccc(F)c2)cc1", "stereo": "stereo partly shown", "Gaussia minus Italica difference (%)": "-3.976"}
{"compound": "COc1ccc2c3c(n(C)c2c1)[C@@H](CO)N(Cc1ccc(F)cc1)CC31CCN(C)CC1", "Gaussia minus Italica difference (%)": "-18.56"}
{"compound": "O=C(Nc1ccccc1F)N1CC(=O)N2[C@H](C1)[C@@H](c1ccc(C#CC3CC3)cc1)[C@@H]2CO", "Gaussia minus Italica difference (%)": "-7.109"}
{"compound": "COc1ccc2c3c(n(C)c2c1)[C@@H](CO)N(C(=O)Nc1ccc(F)cc1)CC31CCN(C(=O)c2ccccc2F)CC1", "Gaussia minus Italica difference (%)": "-6.838"}
{"compound": "COc1cccc(S(=O)(=O)N2CCCCN3[C@H](CO)[C@H](c4ccc(-c5cccnc5)cc4)[C@H]3C2)c1", "Gaussia minus Italica difference (%)": "-10.33"}
{"compound": "C[C@@H]1CCCCO[C@H](CN(C)C(=O)Nc2ccc3c(c2)OCO3)[C@@H](C)CN([C@@H](C)CO)C(=O)c2cc(NC(=O)C3CCCCC3)ccc2O1", "Gaussia minus Italica difference (%)": "1.345"}
{"compound": "COc1cccc(C#Cc2ccc([C@@H]3[C@@H](CO)N4C(=O)CN(C(=O)c5ccccc5)C[C@@H]34)cc2)c1", "Gaussia minus Italica difference (%)": "-8.102"}
{"compound": "Cc1ccccc1S(=O)(=O)N1[C@H](C#N)[C@@H](c2ccccc2-c2cccc(F)c2)[C@@H]1CO", "Gaussia minus Italica difference (%)": "7.164"}

For reference, 3 entries once more:

Compound,Gaussia minus Italica difference (%)
COc1ccc(-c2ccc([C@@H]3[C@H]4CN(C(=O)c5ccc(F)cc5)CCCCN4[C@H]3CO)cc2)cc1,3.529
COc1cccc(S(=O)(=O)N2CCCCN3[C@H](CO)[C@H](c4ccc(-c5cccnc5)cc4)[C@@H]3C2)c1,-1.727
COc1ccc2c3c(n(C)c2c1)[C@@H](CO)N(Cc1ccc(F)cc1)CC31CCN(C)CC1,-18.56

The results are deposited in PubChem (AID1224904; Broad Institute, 2016).